Laboratory results: article PMC7521757
These are yes or no findings as the source states them, for the method shown. In cells and extracts the contact can be indirect. Here binding means that the protein was enriched with, or labelled near, the bait; the list need not be complete.

Amino acid sequences for entries named in this document (tags omitted). A change or cut given only in a name is not applied to a line headed by its entry.
UniProt Q57ZV5: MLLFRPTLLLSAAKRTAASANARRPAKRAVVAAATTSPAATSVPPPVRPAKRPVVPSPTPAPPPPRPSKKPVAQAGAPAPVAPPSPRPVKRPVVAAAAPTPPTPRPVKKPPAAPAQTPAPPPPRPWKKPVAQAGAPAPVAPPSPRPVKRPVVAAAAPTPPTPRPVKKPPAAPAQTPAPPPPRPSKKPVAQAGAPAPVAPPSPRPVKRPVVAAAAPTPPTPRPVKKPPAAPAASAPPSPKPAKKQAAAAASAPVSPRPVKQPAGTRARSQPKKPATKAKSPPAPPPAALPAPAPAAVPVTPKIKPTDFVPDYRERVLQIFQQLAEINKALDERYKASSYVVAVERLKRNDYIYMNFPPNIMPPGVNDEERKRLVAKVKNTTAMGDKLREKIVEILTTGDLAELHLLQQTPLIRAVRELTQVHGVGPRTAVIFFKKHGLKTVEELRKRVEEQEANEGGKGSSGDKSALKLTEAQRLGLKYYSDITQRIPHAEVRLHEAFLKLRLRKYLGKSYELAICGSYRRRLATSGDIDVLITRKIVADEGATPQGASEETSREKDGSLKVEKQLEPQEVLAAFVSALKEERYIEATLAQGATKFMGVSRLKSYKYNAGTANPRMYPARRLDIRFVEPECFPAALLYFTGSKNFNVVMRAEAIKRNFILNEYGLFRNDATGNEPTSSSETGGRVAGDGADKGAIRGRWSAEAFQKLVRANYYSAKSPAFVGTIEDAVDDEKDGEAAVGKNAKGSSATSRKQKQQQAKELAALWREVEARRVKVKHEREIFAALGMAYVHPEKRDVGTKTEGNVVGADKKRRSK
UniProt Q383D2: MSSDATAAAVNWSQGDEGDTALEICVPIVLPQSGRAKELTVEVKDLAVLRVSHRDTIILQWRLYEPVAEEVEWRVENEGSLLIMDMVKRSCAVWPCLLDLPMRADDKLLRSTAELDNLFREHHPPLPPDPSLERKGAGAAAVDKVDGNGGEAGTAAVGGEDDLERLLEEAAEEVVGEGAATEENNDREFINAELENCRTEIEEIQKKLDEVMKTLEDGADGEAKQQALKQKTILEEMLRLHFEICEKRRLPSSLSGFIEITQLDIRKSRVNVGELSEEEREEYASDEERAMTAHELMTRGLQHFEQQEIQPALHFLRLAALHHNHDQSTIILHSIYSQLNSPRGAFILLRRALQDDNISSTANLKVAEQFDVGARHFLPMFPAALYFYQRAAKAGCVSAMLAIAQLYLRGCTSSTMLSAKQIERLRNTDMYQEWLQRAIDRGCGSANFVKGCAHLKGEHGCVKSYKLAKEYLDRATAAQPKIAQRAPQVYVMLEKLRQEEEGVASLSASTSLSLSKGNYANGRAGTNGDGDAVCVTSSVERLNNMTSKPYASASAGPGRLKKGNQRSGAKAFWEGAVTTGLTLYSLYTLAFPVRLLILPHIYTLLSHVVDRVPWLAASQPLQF
UniProt B8XN38: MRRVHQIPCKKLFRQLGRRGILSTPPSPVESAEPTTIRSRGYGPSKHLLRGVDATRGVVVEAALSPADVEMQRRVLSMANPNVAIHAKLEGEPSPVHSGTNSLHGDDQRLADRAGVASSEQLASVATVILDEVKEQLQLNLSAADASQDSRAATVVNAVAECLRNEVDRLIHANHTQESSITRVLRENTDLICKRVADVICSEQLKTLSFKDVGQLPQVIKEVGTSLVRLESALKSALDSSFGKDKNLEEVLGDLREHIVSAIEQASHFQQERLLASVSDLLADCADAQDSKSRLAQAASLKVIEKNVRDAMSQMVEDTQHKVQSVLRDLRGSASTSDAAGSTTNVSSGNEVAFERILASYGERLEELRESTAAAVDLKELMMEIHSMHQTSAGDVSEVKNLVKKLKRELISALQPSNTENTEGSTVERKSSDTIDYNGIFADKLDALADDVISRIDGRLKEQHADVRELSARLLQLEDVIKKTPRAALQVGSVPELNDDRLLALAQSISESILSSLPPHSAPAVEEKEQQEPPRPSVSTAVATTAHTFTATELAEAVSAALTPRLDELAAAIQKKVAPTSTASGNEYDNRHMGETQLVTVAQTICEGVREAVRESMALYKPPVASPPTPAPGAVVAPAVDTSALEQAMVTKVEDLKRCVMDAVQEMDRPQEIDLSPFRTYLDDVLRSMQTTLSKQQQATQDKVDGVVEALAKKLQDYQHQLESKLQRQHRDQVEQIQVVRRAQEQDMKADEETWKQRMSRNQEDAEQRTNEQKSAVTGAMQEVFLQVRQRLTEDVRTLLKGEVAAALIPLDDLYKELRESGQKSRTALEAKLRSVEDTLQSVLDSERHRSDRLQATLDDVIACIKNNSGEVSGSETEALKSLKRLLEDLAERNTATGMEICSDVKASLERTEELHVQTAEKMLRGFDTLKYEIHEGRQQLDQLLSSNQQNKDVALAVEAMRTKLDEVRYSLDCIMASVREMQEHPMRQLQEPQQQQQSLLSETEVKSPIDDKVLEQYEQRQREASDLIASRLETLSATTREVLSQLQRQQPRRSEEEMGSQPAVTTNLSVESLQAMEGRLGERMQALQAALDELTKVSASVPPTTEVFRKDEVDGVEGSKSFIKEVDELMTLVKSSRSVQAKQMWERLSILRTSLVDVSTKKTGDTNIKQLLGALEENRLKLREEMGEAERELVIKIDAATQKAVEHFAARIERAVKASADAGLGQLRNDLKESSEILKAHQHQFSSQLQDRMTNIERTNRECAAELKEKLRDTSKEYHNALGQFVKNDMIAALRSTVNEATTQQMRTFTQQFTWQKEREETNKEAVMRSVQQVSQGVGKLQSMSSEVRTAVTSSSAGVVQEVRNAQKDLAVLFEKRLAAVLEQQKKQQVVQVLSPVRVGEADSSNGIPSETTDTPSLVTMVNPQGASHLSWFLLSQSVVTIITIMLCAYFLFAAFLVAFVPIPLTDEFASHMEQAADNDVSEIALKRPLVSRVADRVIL
UniProt Q57WR0: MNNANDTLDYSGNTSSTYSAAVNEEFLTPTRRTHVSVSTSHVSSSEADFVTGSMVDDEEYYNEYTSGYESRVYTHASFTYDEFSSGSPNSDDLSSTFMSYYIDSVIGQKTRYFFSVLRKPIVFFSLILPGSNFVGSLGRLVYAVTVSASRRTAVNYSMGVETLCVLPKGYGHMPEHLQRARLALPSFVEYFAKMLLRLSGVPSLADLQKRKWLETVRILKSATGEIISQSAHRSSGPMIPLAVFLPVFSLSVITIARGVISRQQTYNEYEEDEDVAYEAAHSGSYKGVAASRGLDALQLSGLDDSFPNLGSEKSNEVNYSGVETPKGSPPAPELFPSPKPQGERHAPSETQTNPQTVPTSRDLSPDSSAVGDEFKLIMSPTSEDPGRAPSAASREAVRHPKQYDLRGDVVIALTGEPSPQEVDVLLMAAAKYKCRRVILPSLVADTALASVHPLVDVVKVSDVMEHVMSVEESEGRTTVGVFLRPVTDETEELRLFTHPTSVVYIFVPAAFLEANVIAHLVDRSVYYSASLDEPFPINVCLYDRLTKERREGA
UniProt Q57UK0: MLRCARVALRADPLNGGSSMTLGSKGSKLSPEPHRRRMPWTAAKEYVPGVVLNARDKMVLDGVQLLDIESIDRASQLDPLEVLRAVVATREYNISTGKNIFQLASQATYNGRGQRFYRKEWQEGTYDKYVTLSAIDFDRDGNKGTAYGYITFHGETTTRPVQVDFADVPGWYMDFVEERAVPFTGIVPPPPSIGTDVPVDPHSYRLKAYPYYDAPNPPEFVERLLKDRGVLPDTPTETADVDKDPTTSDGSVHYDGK
UniProt Q583E5: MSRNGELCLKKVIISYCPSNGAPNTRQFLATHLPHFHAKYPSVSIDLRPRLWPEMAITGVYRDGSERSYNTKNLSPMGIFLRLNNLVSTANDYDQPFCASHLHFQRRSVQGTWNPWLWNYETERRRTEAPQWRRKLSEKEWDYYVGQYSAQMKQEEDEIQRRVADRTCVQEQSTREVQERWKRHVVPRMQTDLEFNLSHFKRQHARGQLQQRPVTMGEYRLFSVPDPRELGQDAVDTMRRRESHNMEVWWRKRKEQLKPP
UniProt Q8MWB2: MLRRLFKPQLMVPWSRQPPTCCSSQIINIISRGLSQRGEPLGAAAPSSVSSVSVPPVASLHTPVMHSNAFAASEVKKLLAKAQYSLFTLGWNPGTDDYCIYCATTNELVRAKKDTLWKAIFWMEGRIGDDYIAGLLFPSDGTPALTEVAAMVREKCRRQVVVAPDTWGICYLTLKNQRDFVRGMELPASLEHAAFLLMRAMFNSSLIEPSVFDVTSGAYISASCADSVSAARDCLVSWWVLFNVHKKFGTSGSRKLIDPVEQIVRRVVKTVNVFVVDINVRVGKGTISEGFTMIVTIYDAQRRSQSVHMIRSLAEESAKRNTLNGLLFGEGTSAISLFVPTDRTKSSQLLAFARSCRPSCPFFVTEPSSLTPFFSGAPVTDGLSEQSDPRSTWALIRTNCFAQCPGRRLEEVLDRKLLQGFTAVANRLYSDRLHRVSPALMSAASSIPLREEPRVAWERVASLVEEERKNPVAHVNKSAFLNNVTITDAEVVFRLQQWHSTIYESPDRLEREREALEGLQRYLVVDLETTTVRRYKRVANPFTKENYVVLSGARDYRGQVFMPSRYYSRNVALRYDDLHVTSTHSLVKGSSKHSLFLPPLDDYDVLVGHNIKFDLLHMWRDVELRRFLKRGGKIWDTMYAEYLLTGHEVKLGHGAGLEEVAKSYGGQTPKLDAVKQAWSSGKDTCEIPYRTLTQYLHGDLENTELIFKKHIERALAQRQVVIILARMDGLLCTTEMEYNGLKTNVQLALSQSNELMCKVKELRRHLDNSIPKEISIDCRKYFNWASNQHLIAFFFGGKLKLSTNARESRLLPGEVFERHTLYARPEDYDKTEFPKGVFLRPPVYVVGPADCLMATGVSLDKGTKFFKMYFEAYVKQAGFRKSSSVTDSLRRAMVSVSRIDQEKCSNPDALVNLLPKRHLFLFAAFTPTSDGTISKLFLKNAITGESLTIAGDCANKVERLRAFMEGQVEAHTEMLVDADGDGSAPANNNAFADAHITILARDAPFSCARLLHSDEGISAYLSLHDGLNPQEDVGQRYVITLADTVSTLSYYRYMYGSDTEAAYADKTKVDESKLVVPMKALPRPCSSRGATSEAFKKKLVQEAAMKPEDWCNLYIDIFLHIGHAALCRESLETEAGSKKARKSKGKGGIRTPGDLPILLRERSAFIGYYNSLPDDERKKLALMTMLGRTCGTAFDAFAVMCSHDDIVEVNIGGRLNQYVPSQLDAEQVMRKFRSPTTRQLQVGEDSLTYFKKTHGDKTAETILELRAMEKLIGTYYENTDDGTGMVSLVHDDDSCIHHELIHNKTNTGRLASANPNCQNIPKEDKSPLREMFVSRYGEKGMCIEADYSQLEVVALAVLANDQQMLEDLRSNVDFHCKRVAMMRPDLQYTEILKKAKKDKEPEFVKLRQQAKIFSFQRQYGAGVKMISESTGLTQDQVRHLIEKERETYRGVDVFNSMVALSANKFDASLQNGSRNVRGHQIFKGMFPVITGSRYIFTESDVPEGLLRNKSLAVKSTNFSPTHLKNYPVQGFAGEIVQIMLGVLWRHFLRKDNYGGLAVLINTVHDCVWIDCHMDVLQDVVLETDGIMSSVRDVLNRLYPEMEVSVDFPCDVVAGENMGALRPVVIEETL
UniProt Q581S0: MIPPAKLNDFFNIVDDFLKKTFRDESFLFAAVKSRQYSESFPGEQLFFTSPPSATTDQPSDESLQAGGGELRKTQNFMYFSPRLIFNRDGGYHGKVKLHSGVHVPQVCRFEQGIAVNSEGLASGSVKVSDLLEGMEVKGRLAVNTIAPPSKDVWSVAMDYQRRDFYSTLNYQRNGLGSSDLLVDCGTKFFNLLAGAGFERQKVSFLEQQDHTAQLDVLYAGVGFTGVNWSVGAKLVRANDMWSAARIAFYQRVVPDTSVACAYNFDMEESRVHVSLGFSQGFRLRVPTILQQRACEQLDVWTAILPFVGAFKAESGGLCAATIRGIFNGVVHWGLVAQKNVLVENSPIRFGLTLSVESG

Key:
[1] = target: TAC102 (endogenous) (Trypanosoma brucei brucei (endogenous in Lister 427 29-13 PCF)) (UniProt Q57XN5); assay: affinity purification with mass spectrometry; monoclonal anti-TAC102 antibody crosslinked to protein A / protein G magnetic beads; mitochondrial enriched fraction of PCF 29.13 cells lysed in 25 mM Tris, 150 mM NaCl, 1 mM EDTA, 1% Nonidet P-40, 5% glycerol; empty beads as negative control; elution with 0.1 M glycine pH 2.4; nanoLC-MS/MS; triplicate
[2] = target: Myc-BirA*-TAC102 fusion protein (Trypanosoma brucei) (UniProt Q57XN5); assay: proximity labelling; BioID: PCF cells incubated with biotin for 24 h, Myc-BirA*-TAC102 induced with tetracycline for six hours; lysis in PEME buffer with 0.5% Nonidet P-40; streptavidin-conjugated magnetic beads, nanoLC-MS/MS; enrichment against non-induced cells; four biological replicates

| Substance | binding [1] | binding [2] |
| --- | --- | --- |
| Pol beta PAK (Polymerase beta with PAK domain) (from UniProt Q57ZV5) | binds |  |
| ATOM69, mitochondrial protein import receptor (from UniProt Q383D2) | binds | binds |
| p166 (endogenous) (from UniProt B8XN38) | binds |  |
| TAC60 (endogenous) (from UniProt Q57WR0) | binds |  |
| MRPS34 (from UniProt Q57UK0) | binds | binds |
| MRPL43 (from UniProt Q583E5) | binds | binds |
| POLID, mitochondrial DNA polymerase I D (from UniProt Q8MWB2) (enzyme) |  | binds |
| TAC40 (endogenous) (from UniProt Q581S0) | binds |  |
